Measurements from US6245758A, “Methods of use for peroxynitrite decomposition catalysts, pharmaceutical compositions therefor” (priority 1996, dated 2001).
At least one compound was matched to its structure with a doubt left.

Assays:
[1] = test system: RAW 264.7 cells; test: Cell protection assay, Alamar Blue viability after peroxynitrite challenge; assay type: cell-based, murine; conditions: PN 500 micromolar, FIG. 9 (H2 TMPyP and ZnTMPyP: data not shown)
Experimental: FIG. 8: Comparison of Ni and Fe Catalyst Protection of RAW Cells from PN(peroxynitrite)-mediated Injury. RAW 264.7 cells were plated at approximately 2×10^5 per well of a 96-well plate. […] Each condition represents the mean of 4 wells ±sem.
FIG. 9: Protection from PN-mediated RAW Cell Injury by Fe Catalysts. Cells were treated with 500 micromolar PN in the presence or the absence of the following catalysts: FeTMPyP, FeTMPS, FeTPPS. Cell viability was monitored as described in the text and figure legends 1, 2 and 3. Values represent the mean of 4 determinations ±sem.
Protocol for Cell Protection Assays using Peroxynitrite Decomposition Catalysts: A cell viability assay was established to rapidly assess the efficacy of peroxynitrite(PN) catalysts in protecting cells from PN25 mediated injury and death. […] In order to better assess the efficacy of PN catalysts in protecting cells from PN-mediated damage, a quantity of peroxynitrite(in 50 mM NaOH) determined to cause maximal injury(100%) was added as an exogenous pulse to each well of cells in the presence or absence of catalyst. […]
Cells(RAW 264.7 cells or P815 mastocytoma cells; American Type Culture Collection, Rockville, Md.) were plated to confluence on 96-well tissue culture plates. […] PN is next placed into separate wells at increasing concentrations and cell viability monitored. […]
Cell injury is measured as follows. […]

[2] = Stopped-flow kinetic analysis of catalytic decomposition of peroxynitrite by metal complexes; conditions: pH = 7.4, 22° C.
Experimental: To screen metal complexes for peroxynitrite decomposition catalytic activity of the present invention, peroxynitrite is prepared and isolated as its sodium salt by the reaction of acidic hydrogen peroxide with sodium nitrite followed by rapid quenching with NaOH as set out by Halfpenny and Robinson, in J. Chem. So., 1952, 928-938. Peroxynitrite has an absorbance maximum at 302 nm with an extinction coefficient of 1670 M^-1 cm^-1. Therefore, it is possible to directly observe the decomposition of peroxynitrite by stop-flow spectrophotometric analysis by monitoring the decomposition of the absorbance at 302 nm. That is, such observation of the decomposition of peroxynitrite at a rate accelerated over the natural decomposition rate with the addition of the metal complex identifies a compound of the present invention. […]
Thus, in a typical experiment the natural background decomposition rate of sodium peroxynitrite was determined as follows. […] To test for catalytic peroxynitrite decomposition activity, the metal complex was dissolved in 100 mM potassium phosphate buffer pH=7.4 and loaded into the large syringe and the decomposition of peroxynitrite was monitored as described above. The catalytic rate constant (kcat M-1 sec^-1) for the complexes tested was determined by varying the complex concentration and plotting kobs vs [complex] […]

## C[n+]1ccc(-c2c3nc(c(-c4cc[n+](C)cc4)c4ccc([nH]4)c(-c4cc[n+](C)cc4)c4nc(c(-c5cc[n+](C)cc5)c5ccc2[nH]5)C=C4)C=C3)cc1 [Example H2TMPyP, 5,10,15,20-Tetra-(N-methyl-pyridyl)porphine tetratosylate, reference compound]
[1]
  protection of cells from PN-mediated injury: relatively ineffective
[2]
  kcat, catalytic rate constant for the decomposition of sodium peroxynitrite: Inactive
